Data as given in the supplement of paper PMC8728848.
This is one part of the list.

Assays:
Experiment in all cases: glycan array binding signal (z-score within array); higher = stronger binding
Details in all cases: glycan notation: IUPAC condensed, linker removed
[1] = target: Neu5Ac(a2-6)Gal(b1-4)GlcNAc(b1-3)Gal(b1-4)GlcNAc(b1-3)GalNAc
In short: (§1)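 The Consortium for Functional Glycomics database supplied 3228 glycan arrays, of which those lacking an available protein sequence were dropped. The binding signal, a within-array Z-score, was averaged across arrays of the same protein sequence and across linkers. Negative scores can be read as non-binding.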

[2] = target: Neu5Ac(a2-6)Gal(b1-4)GlcNAc(b1-3)Gal(b1-4)GlcNAc(b1-3)[Neu5Ac(a2-6)Gal(b1-4)GlcNAc(b1-3)Gal(b1-4)GlcNAc(b1-6)]GalNAc
In short: as §1

[3] = target: Neu5Ac(a2-6)Gal(b1-4)GlcNAc(b1-3)Gal(b1-4)GlcNAc(b1-6)[Gal(b1-3)]GalNAc
In short: as §1

[4] = target: Neu5Ac(a2-6)Gal(b1-4)GlcNAc(b1-3)Gal(b1-4)[Fuc(a1-3)]GlcNAc(b1-3)Gal(b1-4)[Fuc(a1-3)]GlcNAc
In short: as §1

[5] = target: Neu5Ac(a2-6)Gal(b1-4)GlcNAc(b1-3)GalNAc
In short: as §1

[6] = target: Neu5Ac(a2-6)Gal(b1-4)GlcNAc(b1-3)[Neu5Ac(a2-6)Gal(b1-4)GlcNAc(b1-6)]GalNAc
In short: as §1

[7] = target: Neu5Ac(a2-6)Gal(b1-4)GlcNAc(b1-6)GalNAc
In short: as §1

[8] = target: Neu5Ac(a2-6)Gal(b1-4)GlcNAc(b1-6)[Gal(b1-3)GlcNAc(b1-3)]Gal(b1-4)Glc
In short: as §1

[9] = target: Neu5Ac(a2-6)Gal(b1-4)GlcNAc(b1-6)[Gal(b1-3)]GalNAc
In short: as §1

[10] = target: Neu5Ac(a2-6)Gal(b1-4)GlcNAc6S
In short: as §1

Neu5Ac(a2-6)GalNAc = target: Neu5Ac(a2-6)GalNAc
In short: as §1

[11] = target: Neu5Ac(a2-6)GalNAc(b1-4)GlcNAc
In short: as §1

[12] = target: Neu5Ac(a2-6)GalNAc(b1-4)GlcNAc6S
In short: as §1

[13] = target: Neu5Ac(a2-6)GlcNAc(b1-4)GlcNAc
In short: as §1

[14] = target: Neu5Ac(a2-6)GlcNAc(b1-4)GlcNAc(b1-4)GlcNAc
In short: as §1

Neu5Ac(a2-8)Neu5Ac = target: Neu5Ac(a2-8)Neu5Ac
In short: as §1

[15] = target: Neu5Ac(a2-8)Neu5Ac(a2-3)Gal(b1-3)GalNAc(b1-4)[Neu5Ac(a2-3)]Gal(b1-4)Glc
In short: as §1

[16] = target: Neu5Ac(a2-8)Neu5Ac(a2-3)Gal(b1-3)GalNAc(b1-4)[Neu5Ac(a2-8)Neu5Ac(a2-3)]Gal(b1-4)Glc
In short: as §1

[17] = target: Neu5Ac(a2-8)Neu5Ac(a2-3)Gal(b1-4)Glc
In short: as §1

[18] = target: Neu5Ac(a2-8)Neu5Ac(a2-3)Gal(b1-4)GlcNAc
In short: as §1

[19] = target: Neu5Ac(a2-8)Neu5Ac(a2-3)[Gal(b1-3)GalNAc(b1-4)]Gal(b1-4)Glc
In short: as §1

[20] = target: Neu5Ac(a2-8)Neu5Ac(a2-3)[GalNAc(b1-4)]Gal(b1-4)Glc
In short: as §1

[21] = target: Neu5Ac(a2-8)Neu5Ac(a2-8)Neu5Ac
In short: as §1

[22] = target: Neu5Ac(a2-8)Neu5Ac(a2-8)Neu5Ac(a2-3)Gal(b1-4)Glc
In short: as §1

[23] = target: Neu5Ac(a2-8)Neu5Ac(a2-8)Neu5Ac(a2-3)[Gal(b1-3)GalNAc(b1-4)]Gal(b1-4)Glc
In short: as §1

[24] = target: Neu5Ac(a2-8)Neu5Ac(a2-8)Neu5Ac(a2-3)[GalNAc(b1-4)]Gal(b1-4)Glc
In short: as §1

[25] = target: Neu5Ac(a2-8)Neu5Ac(a2-8)Neu5Ac(a2-8)Neu5Ac(a2-3)[GalNAc(b1-4)]Gal(b1-4)Glc
In short: as §1

[26] = target: Neu5Ac(a2-8)Neu5Gc(a2-3)Gal(b1-4)GlcNAc
In short: as §1

[27] = target: Neu5Ac(b2-6)Gal(b1-4)GlcNAc
In short: as §1

Neu5Ac(b2-6)GalNAc = target: Neu5Ac(b2-6)GalNAc
In short: as §1

[28] = target: Neu5Ac9Ac(a2-3)Gal(b1-3)GlcNAc
In short: as §1

[29] = target: Neu5Ac9Ac(a2-3)Gal(b1-4)GlcNAc
In short: as §1

[30] = target: Neu5Ac9Ac(a2-6)Gal(b1-4)GlcNAc
In short: as §1

[31] = target: Neu5Gc(a2-3)Gal(b1-3)GlcNAc
In short: as §1

[32] = target: Neu5Gc(a2-3)Gal(b1-3)[Fuc(a1-4)]GlcNAc
In short: as §1

Neu5Gc(a2-3)Gal(b1-4)Glc = target: Neu5Gc(a2-3)Gal(b1-4)Glc
In short: as §1

[33] = target: Neu5Gc(a2-3)Gal(b1-4)GlcNAc
In short: as §1

[34] = target: Neu5Gc(a2-3)Gal(b1-4)GlcNAc(b1-3)Gal(b1-4)GlcNAc(b1-2)Man(a1-3)[Neu5Gc(a2-3)Gal(b1-4)GlcNAc(b1-3)Gal(b1-4)GlcNAc(b1-2)Man(a1-6)]Man(b1-4)GlcNAc(b1-4)GlcNAc
In short: as §1

[35] = target: Neu5Gc(a2-3)Gal(b1-4)[Fuc(a1-3)]GlcNAc
In short: as §1

[36] = target: Neu5Gc(a2-6)Gal(b1-4)GlcNAc
In short: as §1

Neu5Gc(a2-6)GalNAc = target: Neu5Gc(a2-6)GalNAc
In short: as §1

[37] = target: Neu5Gc(a2-8)Neu5Ac(a2-3)Gal(b1-4)GlcNAc
In short: as §1

[38] = target: Neu5Gc(a2-8)Neu5Gc(a2-3)Gal(b1-4)GlcNAc
In short: as §1

[39] = target: Neu5Gc(a2-8)Neu5Gc(a2-3)Gal(b1-4)GlcNAc(b1-3)Gal(b1-4)GlcNAc
In short: as §1

[40] = target: Neu5Gc(a2-8)Neu5Gc(a2-6)Gal(b1-4)GlcNAc
In short: as §1

B1: Pwp7 (Candida glabrata) (protein)
chain: MGSSHHHHHHSSGLVPRGSHMASKNPVDFPNLCQYPNLDGAVAGFDTEIYNADPSILINFSLWPILQFPKEWHKTIGRAITTQTNFKLPASDTTLFGVSIPTQNILIEFRGYFIPPKSGTYTFALYLTDDGSAMFLGNDAAFPCGNITSWSNPTNDQVSVSDYDPKKKTLTVYMVAGVAYPLRIAYYNREKGGSLTASFVDPDGLTHSDWNGYIWTLPSCDNCKYS
glycan array binding signal (z-score) [1]: 0.805 | glycan array binding signal (z-score) [2]: 2.04 | glycan array binding signal (z-score) [3]: 0.645 | glycan array binding signal (z-score) [4]: -0.43 | glycan array binding signal (z-score) [5]: 0.055 | glycan array binding signal (z-score) [6]: -0.154 | glycan array binding signal (z-score) [7]: -0.331 | glycan array binding signal (z-score) [8]: 0.395 | glycan array binding signal (z-score) [9]: 0.496 | glycan array binding signal (z-score) [10]: 0.062 | glycan array binding signal (z-score) (Neu5Ac(a2-6)GalNAc): -0.9 | glycan array binding signal (z-score) [11]: 0.016 | glycan array binding signal (z-score) [12]: 0.154 | glycan array binding signal (z-score) [13]: 0.199 | glycan array binding signal (z-score) [14]: -0.434 | glycan array binding signal (z-score) (Neu5Ac(a2-8)Neu5Ac): 0.955 | glycan array binding signal (z-score) [15]: -0.085 | glycan array binding signal (z-score) [16]: -0.33 | glycan array binding signal (z-score) [17]: -0.431 | glycan array binding signal (z-score) [18]: -0.648 | glycan array binding signal (z-score) [19]: -0.208 | glycan array binding signal (z-score) [20]: 0.429 | glycan array binding signal (z-score) [21]: -0.343 | glycan array binding signal (z-score) [22]: -0.053 | glycan array binding signal (z-score) [23]: 0.603 | glycan array binding signal (z-score) [24]: 0.88 | glycan array binding signal (z-score) [25]: 0.069 | glycan array binding signal (z-score) [26]: -0.328 | glycan array binding signal (z-score) [27]: -0.537 | glycan array binding signal (z-score) (Neu5Ac(b2-6)GalNAc): -0.387 | glycan array binding signal (z-score) [28]: -0.436 | glycan array binding signal (z-score) [29]: -1.15 | glycan array binding signal (z-score) [30]: -0.662 | glycan array binding signal (z-score) [31]: -0.313 | glycan array binding signal (z-score) [32]: -1.13 | glycan array binding signal (z-score) (Neu5Gc(a2-3)Gal(b1-4)Glc): -0.406 | glycan array binding signal (z-score) [33]: -0.381 | glycan array binding signal (z-score) [34]: 0.719 | glycan array binding signal (z-score) [35]: -0.557 | glycan array binding signal (z-score) [36]: -0.996 | glycan array binding signal (z-score) (Neu5Gc(a2-6)GalNAc): -1.42 | glycan array binding signal (z-score) [37]: -0.088 | glycan array binding signal (z-score) [38]: -0.224 | glycan array binding signal (z-score) [39]: -0.362 | glycan array binding signal (z-score) [40]: -0.163
